Laboratory results as given in PMC8464836 (Biomolecules, 2021).

Test: PAMPA assay (Polar Brain Lipid membrane)
Conditions: BBB permeability class predicted from PAMPA Pe

NS(=O)(=O)c1cc(C(=O)O)c(NCc2ccco2)cc1Cl [Furosemide, reference compound]
CNS (+/−): CNS − (CNS − (low BBB permeability predicted), Pe (10^−6 cm∙s^−1) < 2.0)
